Source: PMC11425246
No constants are given. Whether binding was seen depends on the method and setting. In cells and extracts the contact can be indirect. Some results given as binding are weak or reduced against the parent protein; the word gives no strength.

Chains of the proteins cited; added tags and fusions are not shown.
UniProt P35222: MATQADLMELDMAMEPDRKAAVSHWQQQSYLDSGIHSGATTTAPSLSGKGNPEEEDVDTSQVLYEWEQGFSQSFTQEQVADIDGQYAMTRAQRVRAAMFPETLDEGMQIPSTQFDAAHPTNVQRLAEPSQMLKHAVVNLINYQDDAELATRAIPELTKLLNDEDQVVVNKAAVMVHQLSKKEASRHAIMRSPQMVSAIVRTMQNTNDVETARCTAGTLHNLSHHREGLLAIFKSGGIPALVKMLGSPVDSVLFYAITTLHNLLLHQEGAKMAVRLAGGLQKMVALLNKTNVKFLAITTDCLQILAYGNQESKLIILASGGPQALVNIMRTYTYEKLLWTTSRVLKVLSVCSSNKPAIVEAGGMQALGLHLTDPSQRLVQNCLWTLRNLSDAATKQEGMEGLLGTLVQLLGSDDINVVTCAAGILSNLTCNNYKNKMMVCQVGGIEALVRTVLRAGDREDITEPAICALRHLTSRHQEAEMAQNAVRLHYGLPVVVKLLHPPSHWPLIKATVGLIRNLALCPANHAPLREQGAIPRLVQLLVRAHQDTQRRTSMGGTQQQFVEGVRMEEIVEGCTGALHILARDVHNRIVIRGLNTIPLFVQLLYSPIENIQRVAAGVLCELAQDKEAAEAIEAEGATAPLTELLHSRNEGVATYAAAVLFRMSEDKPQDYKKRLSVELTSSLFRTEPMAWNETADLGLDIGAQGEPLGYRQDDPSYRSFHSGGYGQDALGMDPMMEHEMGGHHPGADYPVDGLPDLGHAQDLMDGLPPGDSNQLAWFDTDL

T1: MEN1 (endogenous) (human (endogenous in PanNET cell lines)) (UniProt O00255)
T1 sequence: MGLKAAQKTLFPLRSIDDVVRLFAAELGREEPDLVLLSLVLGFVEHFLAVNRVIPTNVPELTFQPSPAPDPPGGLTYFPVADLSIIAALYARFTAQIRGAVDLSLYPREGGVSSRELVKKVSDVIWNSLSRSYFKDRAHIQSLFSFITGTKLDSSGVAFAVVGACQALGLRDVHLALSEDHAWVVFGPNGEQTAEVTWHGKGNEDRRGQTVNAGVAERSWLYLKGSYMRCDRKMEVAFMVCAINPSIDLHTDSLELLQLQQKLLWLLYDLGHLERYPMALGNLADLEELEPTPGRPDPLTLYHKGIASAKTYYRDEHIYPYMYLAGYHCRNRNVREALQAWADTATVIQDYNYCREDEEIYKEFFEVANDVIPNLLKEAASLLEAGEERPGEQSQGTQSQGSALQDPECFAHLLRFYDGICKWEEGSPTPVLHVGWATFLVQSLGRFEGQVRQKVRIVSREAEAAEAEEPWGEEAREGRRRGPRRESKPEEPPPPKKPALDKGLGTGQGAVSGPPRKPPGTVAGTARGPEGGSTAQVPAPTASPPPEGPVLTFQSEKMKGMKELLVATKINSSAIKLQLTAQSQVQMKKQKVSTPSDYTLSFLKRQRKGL

B1: MEN1 (endogenous) (protein, UniProt O00255 1-610)
chain: T1 sequence

Legend:
[1] = molecular target: T1, MEN1 (endogenous) (human (endogenous in PanNET cell lines)); assay: co-IP; two PanNET cell lines lysed and immunoprecipitated with anti‐β‐Catenin Ab or MEN1 Ab, blotted for MEN1 or β‐Catenin, IgG as negative control; endogenous proteins
[2] = molecular target: β‐Catenin (endogenous) (human (endogenous in PanNET cell lines)) (UniProt P35222); assay: as above

Row | Molecule | binding [1] | binding [2]
1 | β‐Catenin (endogenous) (from UniProt P35222 1-781) | binds | 
2 | B1 |  | binds
